Laboratory results reported in article PMC9811263.
Results are given in words; binding and its absence hold for the method and conditions named. For part of these data: Binding seen in cells or lysates may run through a third protein. Some entries that bind do so weakly or less than the wild type. Tags and fused reporters may be left off the sequences shown.

What was measured:
[1] = biological target: T1, CARK3-YFP^C (Arabidopsis) (UniProt O80719); experiment: split reporter; BiFC; YFP^N/YFP^C combinations co-expressed in 4-week old tobacco leaves via Agrobacteria GV3101; YFP signal observed after 2 days by confocal microscopy
T1 sequence: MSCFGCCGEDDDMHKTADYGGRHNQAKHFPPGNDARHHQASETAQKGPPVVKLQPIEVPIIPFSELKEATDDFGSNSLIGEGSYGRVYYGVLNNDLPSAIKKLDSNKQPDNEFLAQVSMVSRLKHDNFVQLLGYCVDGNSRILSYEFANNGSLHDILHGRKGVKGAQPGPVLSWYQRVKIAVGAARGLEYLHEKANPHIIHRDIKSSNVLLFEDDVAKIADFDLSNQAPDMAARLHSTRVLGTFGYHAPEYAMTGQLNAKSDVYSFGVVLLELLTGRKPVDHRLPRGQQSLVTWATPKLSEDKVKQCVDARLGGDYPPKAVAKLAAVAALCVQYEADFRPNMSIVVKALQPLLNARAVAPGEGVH

GST-CARK3 (Arabidopsis) = biological target: T2, GST-CARK3 (Arabidopsis) (UniProt O80719); experiment: pull-down; 5 μg GST-CARK3 or GST bound to glutathione-agarose beads incubated with His-ADF4; 50 mM Tris-HCl pH 8.0, 200 mM NaCl, 10% glycerol, 0.1% Tween 20; room temperature, 30 min; immunoblot with GST and His antibodies; both purified
T2 sequence: T1 sequence

14-3-3κ (Arabidopsis) = biological target: T3, 14-3-3κ (Arabidopsis) (UniProt P48348); experiment: split reporter; BiFC; YFP^N/YFP^C combinations co-expressed in 4-week old tobacco leaves via Agrobacteria GV3101; YFP signal observed after 2 days by confocal microscopy
T3 sequence: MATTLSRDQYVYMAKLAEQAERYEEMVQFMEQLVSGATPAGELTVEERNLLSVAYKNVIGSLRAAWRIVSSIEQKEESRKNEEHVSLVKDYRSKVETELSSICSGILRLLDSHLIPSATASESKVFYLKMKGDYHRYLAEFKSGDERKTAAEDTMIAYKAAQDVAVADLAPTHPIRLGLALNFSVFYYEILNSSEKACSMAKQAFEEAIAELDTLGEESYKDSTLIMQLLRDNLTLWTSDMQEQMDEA

B1: ADF4-YFP^N (protein, UniProt Q9ZSK3 1-139)
chain: MANAASGMAVHDDCKLRFLELKAKRTHRFIVYKIEEKQKQVIVEKVGEPILTYEDFAASLPADECRYAIYDFDFVTAENCQKSKIFFIAWCPDVAKVRSKMIYASSKDRFKRELDGIQVELQATDPTEMDLDVLKSRVN
binding [1]: binds

B2: His-ADF4 (protein, UniProt Q9ZSK3 1-139)
chain: B1 chain
binding (GST-CARK3 (Arabidopsis)): binds

B3: CARK3-YFP^C (enzyme, UniProt O80719 1-365)
chain: T1 sequence
binding (14-3-3κ (Arabidopsis)): no binding
